Our source for the binding values is PMC12618078.

Chains of the proteins cited; added tags and fusions are not shown. Lines headed by an entry give the natural chain unless they say otherwise; changes in a name come on top.
UniProt Q5UIP0: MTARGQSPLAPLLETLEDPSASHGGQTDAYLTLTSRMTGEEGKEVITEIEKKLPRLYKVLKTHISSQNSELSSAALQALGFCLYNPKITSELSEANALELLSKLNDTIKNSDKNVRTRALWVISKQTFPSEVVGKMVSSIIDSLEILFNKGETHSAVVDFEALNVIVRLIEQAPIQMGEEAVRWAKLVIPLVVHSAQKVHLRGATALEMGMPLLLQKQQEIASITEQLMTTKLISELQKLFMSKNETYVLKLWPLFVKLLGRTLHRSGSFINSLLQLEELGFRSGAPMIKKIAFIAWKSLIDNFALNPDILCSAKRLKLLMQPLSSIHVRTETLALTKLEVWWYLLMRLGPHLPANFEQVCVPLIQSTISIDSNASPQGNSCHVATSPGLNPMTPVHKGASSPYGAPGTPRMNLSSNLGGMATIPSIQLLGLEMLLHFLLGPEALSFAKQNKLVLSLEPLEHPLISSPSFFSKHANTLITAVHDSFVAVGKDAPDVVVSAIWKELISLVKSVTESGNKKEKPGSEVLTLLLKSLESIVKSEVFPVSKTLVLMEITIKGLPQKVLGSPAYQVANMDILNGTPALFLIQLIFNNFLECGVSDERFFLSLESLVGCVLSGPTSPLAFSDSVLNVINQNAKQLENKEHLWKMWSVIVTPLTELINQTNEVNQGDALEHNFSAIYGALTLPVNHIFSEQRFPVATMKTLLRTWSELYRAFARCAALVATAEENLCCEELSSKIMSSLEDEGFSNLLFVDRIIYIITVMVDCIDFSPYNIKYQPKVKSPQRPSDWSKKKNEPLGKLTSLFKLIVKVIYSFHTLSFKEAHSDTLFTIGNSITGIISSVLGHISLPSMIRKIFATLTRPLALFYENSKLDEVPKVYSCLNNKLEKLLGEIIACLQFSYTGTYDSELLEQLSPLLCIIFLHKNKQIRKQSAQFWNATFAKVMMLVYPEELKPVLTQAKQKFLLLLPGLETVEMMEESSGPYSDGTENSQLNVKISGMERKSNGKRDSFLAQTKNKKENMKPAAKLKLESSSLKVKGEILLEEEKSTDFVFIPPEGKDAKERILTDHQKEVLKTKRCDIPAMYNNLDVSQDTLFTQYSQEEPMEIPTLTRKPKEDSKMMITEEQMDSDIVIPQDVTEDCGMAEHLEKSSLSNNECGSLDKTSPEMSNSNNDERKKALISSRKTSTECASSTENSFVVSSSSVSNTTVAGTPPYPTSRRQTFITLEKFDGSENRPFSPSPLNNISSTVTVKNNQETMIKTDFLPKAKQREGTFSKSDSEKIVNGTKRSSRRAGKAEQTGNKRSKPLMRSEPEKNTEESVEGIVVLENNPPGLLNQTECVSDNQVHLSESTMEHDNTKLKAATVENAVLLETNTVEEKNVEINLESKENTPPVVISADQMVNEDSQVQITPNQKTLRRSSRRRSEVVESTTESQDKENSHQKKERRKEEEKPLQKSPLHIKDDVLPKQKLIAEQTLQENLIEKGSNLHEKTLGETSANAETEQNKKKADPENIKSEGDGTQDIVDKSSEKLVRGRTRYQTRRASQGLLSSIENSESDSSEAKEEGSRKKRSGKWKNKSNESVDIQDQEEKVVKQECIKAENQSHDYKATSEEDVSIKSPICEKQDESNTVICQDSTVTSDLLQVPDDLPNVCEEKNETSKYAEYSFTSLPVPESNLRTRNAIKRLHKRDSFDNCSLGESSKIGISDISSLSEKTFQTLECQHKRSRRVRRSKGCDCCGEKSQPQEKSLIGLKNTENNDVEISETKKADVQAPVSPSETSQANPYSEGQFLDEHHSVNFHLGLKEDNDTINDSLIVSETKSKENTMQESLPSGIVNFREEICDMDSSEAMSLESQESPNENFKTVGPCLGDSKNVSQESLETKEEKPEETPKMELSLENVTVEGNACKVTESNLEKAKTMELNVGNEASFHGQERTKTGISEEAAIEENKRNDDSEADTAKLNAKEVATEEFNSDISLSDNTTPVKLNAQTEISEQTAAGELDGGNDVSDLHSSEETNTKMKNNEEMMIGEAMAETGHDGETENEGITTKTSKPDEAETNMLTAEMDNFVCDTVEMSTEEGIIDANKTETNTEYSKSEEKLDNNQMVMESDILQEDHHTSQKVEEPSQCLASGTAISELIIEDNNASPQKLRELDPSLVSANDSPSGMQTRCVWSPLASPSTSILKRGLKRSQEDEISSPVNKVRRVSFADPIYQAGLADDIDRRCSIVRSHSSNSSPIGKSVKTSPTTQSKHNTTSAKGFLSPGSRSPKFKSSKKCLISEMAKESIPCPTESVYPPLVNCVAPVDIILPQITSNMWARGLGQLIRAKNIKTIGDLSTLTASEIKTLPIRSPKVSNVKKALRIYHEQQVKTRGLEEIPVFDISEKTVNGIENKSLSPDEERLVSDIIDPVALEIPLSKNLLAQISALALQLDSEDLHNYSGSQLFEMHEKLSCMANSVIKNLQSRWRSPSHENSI
UniProt Q6ZW49: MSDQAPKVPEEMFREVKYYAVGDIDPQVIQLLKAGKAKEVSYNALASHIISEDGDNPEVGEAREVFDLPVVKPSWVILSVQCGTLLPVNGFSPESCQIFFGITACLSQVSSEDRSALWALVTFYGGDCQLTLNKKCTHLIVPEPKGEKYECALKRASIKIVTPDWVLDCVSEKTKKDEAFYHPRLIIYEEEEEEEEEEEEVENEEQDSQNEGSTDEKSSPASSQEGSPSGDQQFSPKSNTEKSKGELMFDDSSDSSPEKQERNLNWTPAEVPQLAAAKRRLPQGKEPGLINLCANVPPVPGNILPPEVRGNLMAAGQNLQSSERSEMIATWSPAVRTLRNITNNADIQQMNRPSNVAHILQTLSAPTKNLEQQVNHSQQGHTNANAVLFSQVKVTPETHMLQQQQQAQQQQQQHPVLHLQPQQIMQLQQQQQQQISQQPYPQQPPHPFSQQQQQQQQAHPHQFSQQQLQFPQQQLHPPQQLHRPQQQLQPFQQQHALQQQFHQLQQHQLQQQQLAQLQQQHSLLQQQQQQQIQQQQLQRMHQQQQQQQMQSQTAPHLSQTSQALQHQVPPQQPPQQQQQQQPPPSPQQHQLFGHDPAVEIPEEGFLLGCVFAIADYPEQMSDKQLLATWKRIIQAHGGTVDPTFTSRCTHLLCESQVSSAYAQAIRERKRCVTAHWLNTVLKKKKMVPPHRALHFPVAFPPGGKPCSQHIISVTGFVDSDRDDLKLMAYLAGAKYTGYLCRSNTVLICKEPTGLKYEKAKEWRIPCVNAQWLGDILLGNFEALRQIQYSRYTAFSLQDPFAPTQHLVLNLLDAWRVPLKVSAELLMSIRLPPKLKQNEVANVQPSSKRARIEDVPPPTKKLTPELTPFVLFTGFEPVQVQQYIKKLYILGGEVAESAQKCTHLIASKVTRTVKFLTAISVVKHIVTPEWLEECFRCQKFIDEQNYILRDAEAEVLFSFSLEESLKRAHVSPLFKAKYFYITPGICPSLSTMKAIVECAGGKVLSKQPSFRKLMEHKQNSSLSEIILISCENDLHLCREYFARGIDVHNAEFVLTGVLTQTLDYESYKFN
UniProt P49841: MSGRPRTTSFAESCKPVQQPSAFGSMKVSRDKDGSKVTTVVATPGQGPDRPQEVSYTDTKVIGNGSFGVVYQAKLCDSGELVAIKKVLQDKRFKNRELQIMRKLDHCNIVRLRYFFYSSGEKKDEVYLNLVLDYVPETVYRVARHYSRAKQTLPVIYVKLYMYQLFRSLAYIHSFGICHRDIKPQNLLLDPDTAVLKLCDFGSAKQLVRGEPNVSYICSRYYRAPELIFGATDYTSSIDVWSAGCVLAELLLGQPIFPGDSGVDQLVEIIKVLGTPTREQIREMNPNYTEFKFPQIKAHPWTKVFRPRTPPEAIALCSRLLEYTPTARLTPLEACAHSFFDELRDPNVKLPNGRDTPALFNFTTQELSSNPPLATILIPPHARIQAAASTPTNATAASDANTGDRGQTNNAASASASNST
UniProt Q12888: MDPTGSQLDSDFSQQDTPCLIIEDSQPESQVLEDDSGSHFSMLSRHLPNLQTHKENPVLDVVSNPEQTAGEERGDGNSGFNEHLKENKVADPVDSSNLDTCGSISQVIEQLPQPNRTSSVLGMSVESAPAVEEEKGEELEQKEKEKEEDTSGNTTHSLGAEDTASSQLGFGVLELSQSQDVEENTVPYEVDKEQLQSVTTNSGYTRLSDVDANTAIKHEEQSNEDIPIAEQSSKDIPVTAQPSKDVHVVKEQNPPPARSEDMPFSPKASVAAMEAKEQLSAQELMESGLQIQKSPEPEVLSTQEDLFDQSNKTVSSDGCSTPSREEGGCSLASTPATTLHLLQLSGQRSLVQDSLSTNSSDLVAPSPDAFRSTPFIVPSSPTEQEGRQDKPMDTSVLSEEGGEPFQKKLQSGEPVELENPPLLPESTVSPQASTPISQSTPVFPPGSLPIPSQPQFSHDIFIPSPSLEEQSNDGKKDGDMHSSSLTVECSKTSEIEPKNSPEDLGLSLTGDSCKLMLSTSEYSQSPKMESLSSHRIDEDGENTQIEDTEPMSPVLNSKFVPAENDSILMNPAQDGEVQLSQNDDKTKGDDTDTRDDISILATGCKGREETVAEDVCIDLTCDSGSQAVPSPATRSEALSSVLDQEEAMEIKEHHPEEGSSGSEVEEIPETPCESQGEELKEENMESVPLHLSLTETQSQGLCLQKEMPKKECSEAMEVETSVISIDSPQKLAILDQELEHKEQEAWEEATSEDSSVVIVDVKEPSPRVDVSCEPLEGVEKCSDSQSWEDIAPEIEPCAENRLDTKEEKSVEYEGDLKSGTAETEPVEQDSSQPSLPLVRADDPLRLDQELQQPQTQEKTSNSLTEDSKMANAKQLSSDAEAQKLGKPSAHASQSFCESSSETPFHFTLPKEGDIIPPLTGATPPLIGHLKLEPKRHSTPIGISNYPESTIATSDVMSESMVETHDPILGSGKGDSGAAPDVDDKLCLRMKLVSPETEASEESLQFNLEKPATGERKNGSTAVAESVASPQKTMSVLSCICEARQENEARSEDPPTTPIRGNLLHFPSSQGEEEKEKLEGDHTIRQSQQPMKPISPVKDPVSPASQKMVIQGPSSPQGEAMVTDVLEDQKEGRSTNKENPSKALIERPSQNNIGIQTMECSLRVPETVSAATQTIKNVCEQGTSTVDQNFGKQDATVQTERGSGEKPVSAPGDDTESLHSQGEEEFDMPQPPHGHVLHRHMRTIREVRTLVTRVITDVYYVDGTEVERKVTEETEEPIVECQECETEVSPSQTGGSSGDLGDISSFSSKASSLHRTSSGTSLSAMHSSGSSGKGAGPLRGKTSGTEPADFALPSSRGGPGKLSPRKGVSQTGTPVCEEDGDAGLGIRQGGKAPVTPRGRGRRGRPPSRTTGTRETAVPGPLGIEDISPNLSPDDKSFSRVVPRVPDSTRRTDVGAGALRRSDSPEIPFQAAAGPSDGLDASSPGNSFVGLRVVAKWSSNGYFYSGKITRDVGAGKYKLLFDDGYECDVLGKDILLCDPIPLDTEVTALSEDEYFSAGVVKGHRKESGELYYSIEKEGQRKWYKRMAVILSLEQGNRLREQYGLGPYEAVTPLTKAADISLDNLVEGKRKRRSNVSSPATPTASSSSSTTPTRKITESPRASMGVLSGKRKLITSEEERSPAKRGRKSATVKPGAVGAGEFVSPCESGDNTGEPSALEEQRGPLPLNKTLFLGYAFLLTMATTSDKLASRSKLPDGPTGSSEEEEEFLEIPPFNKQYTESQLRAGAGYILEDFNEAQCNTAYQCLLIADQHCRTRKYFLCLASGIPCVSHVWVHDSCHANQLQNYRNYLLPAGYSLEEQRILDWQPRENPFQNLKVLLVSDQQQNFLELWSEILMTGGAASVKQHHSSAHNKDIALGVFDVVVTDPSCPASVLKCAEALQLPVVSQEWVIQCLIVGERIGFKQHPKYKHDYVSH

The target in assay [1] is RIF1-FLAG (UniProt Q5UIP0). The experiment in a line: co-IP; WT U2OS cells before and 1 hour after IR (6 Gy); 53BP1 and pT334-53BP1 bands blotted in the precipitates of PTIP and RIF1-FLAG; NETN buffer with nuclease, protein A/G magnetic beads, overnight at 4°C.
Assay [2] has as its target PTIP (UniProt Q6ZW49). Described as above.
For assay [3], the target named is RIF1-FLAG (UniProt Q5UIP0). Nature of the assay: co-IP; reciprocal co-IP in 53BP1-/- U2OS cells reconstituted with WT or T334A 53BP1, before and 1 hour after IR (6 Gy); NETN buffer with nuclease, protein A/G magnetic beads, overnight at 4°C.
The target in assay [4] is PTIP (UniProt Q6ZW49). The assay is described as above.
In assay [5] the target is Glycogen synthase kinase 3 β (GSK3B), endogenous (UniProt P49841). The experiment in a line: co-IP; reciprocal co-IP of endogenous 53BP1 and GSK3B, with or without IR (6 Gy); NETN buffer with nuclease, protein A/G magnetic beads, overnight at 4°C; cell line not stated.

No constants are given. Whether binding was seen depends on the method and setting. Binding seen in cells or lysates may run through a third protein. Some results given as binding are weak or reduced against the parent protein; the word gives no strength.

As for “53BP1, endogenous in WT U2OS cells (total 53BP1) (from UniProt Q12888 1-1972)”, the binding result with RIF1-FLAG [1] and in the assay with PTIP [2] was “binds” each time. Turning to “T334A mutant 53BP1 reconstituted in 53BP1-/- U2OS cells (from UniProt Q12888 1-1972)”, the binding entry with RIF1-FLAG [3] and with PTIP [4] was “binds” in each case. As for “WT 53BP1 reconstituted in 53BP1-/- U2OS cells (from UniProt Q12888 1-1972)”, the binding entry in the assay with RIF1-FLAG [3] and in the assay with PTIP [4] was “binds” in each case. In the case of “p53 binding protein 1 (53BP1), endogenous, in the co-IP of Figure 1B (from UniProt Q12888 1-1972)”, the binding entry in assay [5] is on record as “binds”.
